Assay results published in patent publication US8551701.
The exact form of at least one protein or probe is not confirmed.

Test system: BfaI restriction endonuclease
Assay: enzyme reaction in vitro
Settings: 5'-thiol (HRP conjugated) and 3'-biotin on SEQ 2, 37 C, 2 h, immobilised on streptavidin plate, HRP release depends on target concentration (about 1 nM detectable) and on BfaI amount, purified recombinant protein, label: HRP

Sequence: GGTAGTGCGAAATGCCATTGCTAGTTGTTT / AAACAACTAGCAATGGCATTT [target-probe hybrid with BfaI site]
- activity on this sequence: active
